{"source": "paper PMC5717138", "binders": {"B1": {"name": "O-GlcNAc transferase (OGT), endogenous (enzyme, UniProt O15294 1-1046)", "chain": "MASSVGNVADSTEPTKRMLSFQGLAELAHREYQAGDFEAAERHCMQLWRQEPDNTGVLLLLSSIHFQCRRLDRSAHFSTLAIKQNPLLAEAYSNLGNVYKERGQLQEAIEHYRHALRLKPDFIDGYINLAAALVAAGDMEGAVQAYVSALQYNPDLYCVRSDLGNLLKALGRLEEAKACYLKAIETQPNFAVAWSNLGCVFNAQGEIWLAIHHFEKAVTLDPNFLDAYINLGNVLKEARIFDRAVAAYLRALSLSPNHAVVHGNLACVYYEQGLIDLAIDTYRRAIELQPHFPDAYCNLANALKEKGSVAEAEDCYNTALRLCPTHADSLNNLANIKREQGNIEEAVRLYRKALEVFPEFAAAHSNLASVLQQQGKLQEALMHYKEAIRISPTFADAYSNMGNTLKEMQDVQGALQCYTRAIQINPAFADAHSNLASIHKDSGNIPEAIASYRTALKLKPDFPDAYCNLAHCLQIVCDWTDYDERMKKLVSIVADQLEKNRLPSVHPHHSMLYPLSHGFRKAIAERHGNLCLDKINVLHKPPYEHPKDLKLSDGRLRVGYVSSDFGNHPTSHLMQSIPGMHNPDKFEVFCYALSPDDGTNFRVKVMAEANHFIDLSQIPCNGKAADRIHQDGIHILVNMNGYTKGARNELFALRPAPIQAMWLGYPGTSGALFMDYIITDQETSPAEVAEQYSEKLAYMPHTFFIGDHANMFPHLKKKAVIDFKSNGHIYDNRIVLNGIDLKAFLDSLPDVKIVKMKCPDGGDNADSSNTALNMPVIPMNTIAEAVIEMINRGQIQITINGFSISNGLATTQINNKAATGEEVPRTIIVTTRSQYGLPEDAIVYCNFNQLYKIDPSTLQMWANILKRVPNSVLWLLRFPAVGEPNIQQYAQNMGLPQNRIIFSPVAPKEEHVRRGQLADVCLDTPLCNGHTTGMDVLWAGTPMVTMPGETLASRVAASQLTCLGCLELIAKNRQEYEDIAVKLGTDLEYLKKVRGKVWKQRISSPLFNTKQYTMELERLYLQMWEHYAAGNKPDHMIKPVEVTESA"}, "B2": {"name": "Myc-tagged WT OGT (enzyme, UniProt O15294 1-1046)", "chain": "B1 chain"}}, "key": {"[1]": {"biological_target": "T1, 2xFlag-Polη (DNA polymerase η, wild type) (human) (UniProt Q9Y253)", "T1 sequence": "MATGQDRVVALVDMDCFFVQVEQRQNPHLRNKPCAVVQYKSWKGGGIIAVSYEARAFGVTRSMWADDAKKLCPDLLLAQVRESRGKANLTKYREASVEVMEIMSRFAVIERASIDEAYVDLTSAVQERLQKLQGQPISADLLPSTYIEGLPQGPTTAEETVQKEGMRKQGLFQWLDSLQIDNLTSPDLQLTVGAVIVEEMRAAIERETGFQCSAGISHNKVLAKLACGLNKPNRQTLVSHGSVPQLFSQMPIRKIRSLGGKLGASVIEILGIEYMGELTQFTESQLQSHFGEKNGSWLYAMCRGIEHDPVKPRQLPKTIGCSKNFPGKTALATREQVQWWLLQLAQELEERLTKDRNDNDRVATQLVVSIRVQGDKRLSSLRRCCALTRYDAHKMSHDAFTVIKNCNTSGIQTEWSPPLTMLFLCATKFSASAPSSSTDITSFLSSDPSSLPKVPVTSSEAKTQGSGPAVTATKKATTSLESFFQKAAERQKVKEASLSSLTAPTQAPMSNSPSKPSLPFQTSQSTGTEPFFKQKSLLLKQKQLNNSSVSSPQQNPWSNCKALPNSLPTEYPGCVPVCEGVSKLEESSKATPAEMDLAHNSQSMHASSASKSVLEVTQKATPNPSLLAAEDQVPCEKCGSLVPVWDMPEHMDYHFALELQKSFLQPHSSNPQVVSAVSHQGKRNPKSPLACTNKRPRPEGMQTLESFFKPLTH", "assay": "co-IP; 293T cells transfected with Flag-Polη (WT or mutants); lysis in HEPES buffer (50 mM HEPES pH 7.5, 150 mM NaCl, 1% Triton X-100); anti-Flag M2 agarose; blot with anti-OGT; also after UVC (15 J m^-2, 4 h) or CDDP (10 µg ml^-1, 2 h)"}, "Flag-Polη T457A (human)": {"biological_target": "T2, Flag-Polη T457A (human) (UniProt Q9Y253)", "T2 sequence": "T1 sequence with T457A", "assay": "co-IP; 293T cells transfected with Flag-Polη (WT or mutants); lysis in HEPES buffer (50 mM HEPES pH 7.5, 150 mM NaCl, 1% Triton X-100); anti-Flag M2 agarose; blot with anti-OGT; also after UVC (15 J m^-2, 4 h) or CDDP (10 µg ml^-1, 2 h)"}, "[2]": {"biological_target": "T3, Flag-Polη-3A (T457A/S458A/S459A) (human) (UniProt Q9Y253)", "T3 sequence": "T1 sequence with T457A, S458A, S459A", "assay": "co-IP; 293T cells transfected with Flag-Polη (WT or mutants); lysis in HEPES buffer (50 mM HEPES pH 7.5, 150 mM NaCl, 1% Triton X-100); anti-Flag M2 agarose; blot with anti-OGT; also after UVC (15 J m^-2, 4 h) or CDDP (10 µg ml^-1, 2 h)"}, "[3]": {"biological_target": "T4, Flag-Polη-5A (T457A/S458A/S459A/S466A/T471A) (human) (UniProt Q9Y253)", "T4 sequence": "T1 sequence with T457A, S458A, S459A, S466A, T471A", "assay": "co-IP; 293T cells transfected with Flag-Polη (WT or mutants); lysis in HEPES buffer (50 mM HEPES pH 7.5, 150 mM NaCl, 1% Triton X-100); anti-Flag M2 agarose; blot with anti-OGT; also after UVC (15 J m^-2, 4 h) or CDDP (10 µg ml^-1, 2 h)"}, "[4]": {"biological_target": "T1, 2xFlag-Polη (DNA polymerase η, wild type) (human)", "assay": "co-IP; Myc-tagged WT OGT and a series of OGT deletion mutants with Polη (Supplementary Fig. 2d); who was precipitated not shown"}}, "note": "Numbering of substitutions follows the chain as printed. Results are given in words; binding and its absence hold for the method and conditions named. In cells and extracts the contact can be indirect. Some binding calls cover weakened binding; strength is not graded here. Tags and fused reporters may be left off the sequences shown.", "data": [{"binder": "B1", "values": [{"measurement": "binding", "setting": "[1]", "value": "binds"}, {"measurement": "binding", "setting": "Flag-Polη T457A (human)", "value": "binds"}, {"measurement": "binding", "setting": "[2]", "value": "binds"}, {"measurement": "binding", "setting": "[3]", "value": "binds"}]}, {"binder": "B2", "values": [{"measurement": "binding", "setting": "[4]", "value": "binds"}]}]}
